The values that follow come from patent US20220135665A1.

The target in test [1] is recombinant human VEGF165 protein (human). The test is described as follows: ELISA, VEGF165 coated at 0.1, 1 and 10 ug/mL, Fab 2 ug/mL.
For test [2] the target is unchanged. Briefly: ELISA.
For test [3] the target is unchanged. Briefly: competition ELISA, VEGF165 coated.
Test [4] has the same target. Briefly: phage ELISA on coated recombinant human VEGF165.

No constants are given. Whether binding was seen depends on the method and setting. Binding calls can cover weak binding; strength is not graded here.

B1: humanized antibody VEGF-H988 Fab fragment (Fab, V domains shown)
VH: QSVQESGPGLVKPSETLSLTCTVSGIDLSSYAISWVRQPPGKGLEYIGYIWNDLFTYYASWAKGRVTISVDTSKNQVDLKLSSVTAADTAVYFCARGTLGDYGGMDPWGQGTLVTVSS
VL: ELQLTQSPSSLSASVGDRVTITCQSSKFLWQGRRLAWYQQKPGKVPKLLIYGASTLASGVPSRFKGSGSGTDFTLTISSLQPEDVATYYCAGYKSYDGDVVGFGGGTKVEIKR
B1: the binding entry in test [1] and in test [2] was “binds” in each case.

B2: VEGF165 rabbit antibody VEGF-R988 (antibody, rabbit IgG1, V domains shown)
VH: QSVEESGGRLVTPGTPLTLTCTVSGIDLSSYAISWVRQAPGKGLEYIGYIWNAGNTYYASWAKGRFTISKTSTTVDLKITSPTTEDTATYFCARGTLGDYNGMDPWGPGTLVTVSS
VL: ELDLTQTPSPVSAAVGGTVTINCQSSQTIYANRRLAWYQQKPGQPPKLLIYGASTLASGVPSRFKGSGSGTQFTLTISGVQCDDAATYYCAGYKSYDGDDVGFGGGTEVVVK
Take B2: the binding entry in test [3] is recorded as “binds”.

B3: VEGF165-R988 scFv antibody (scFv)
scFv: ELDLTQTPSPVSAAVGGTVTINCQSSQTIYANRRLAWYQQKPGQPPKLLIYGASTLASGVPSRFKGSGSGTQFTLTISGVQCDDAATYYCAGYKSYDGDDVGFGGGTEVVVKSSGGGGSGGGGGGSSRSSQSVEESGGRLVTPGTPLTLTCTVSGIDLSSYAISWVRQAPGKGLEYIGYIWNAGNTYYASWAKGRFTISKTSTTVDLKITSPTTEDTATYFCARGTLGDYNGMDPWGPGTLVTVSS
Consider B3, for which the binding result in test [4] is given as “binds”.
